Measured values as given in the supplement of paper PMC12578635.
± gives the standard deviation of the averaged measurements. This is one part of the list. Repeats are few or missing, and single values can be far off.

system: RAW 264.7 macrophages infected with S. aureus JE2-lux; test: host macrophage viability (CellTiter-Fluor) relative to DMSO vehicle; higher = more viable host cells; conditions: 10 µM; treatment time 4 h; gentamicin 50 µg/ml

Row | Structure (SMILES) | host macrophage viability [%]
1 | Cn1cnc([N+](=O)[O-])c1Sc1ccc([N+](=O)[O-])cc1 | 117
2 | O=C1NC(=O)C(=Cc2nc(-c3ccccc3Cl)n3ccccc23)C(=O)N1 | 116
3 | CC1=CC(=C2C(=O)NC(=S)NC2=O)C=C(C)N1Cc1ccco1 | 147
4 | O=C1NC(=O)C(=NNc2ccc(OC(F)F)cc2)C(=O)N1 | 90.1
5 | CS(=O)(=O)c1ccccc1C(=O)Nc1ccc(Cl)cc1C(=O)c1ccccc1Cl | 100
6 | CC1C(C#N)=C(N)Oc2c1c(=O)oc1ccccc21 (stereo not drawn) | 96.8
7 | Cc1ccccc1-c1ncccc1C(=O)N1CCC(C(=O)N2CCC3(CC2)OCCO3)CC1 | 92.6
8 | COC(=O)C1=C(N)Oc2cc(C)n(CC3CCCO3)c(=O)c2C12C(=O)Nc1ccccc12 (stereo not drawn) | 116
9 | O=C1NC(=S)NC(=O)C1=Cc1nc(-c2ccc(Cl)cc2)n2ccccc12 | 126
10 | O=C1CN=C(c2ccc(F)cc2)c2cc(F)ccc2N1 | 121
11 | CCS(=O)(=O)c1cccc(C(=O)Nc2ccc(Cl)cc2C(=O)c2ccccc2)c1 | 121
12 | Cc1cc(O)c(C(=O)Nc2cccc(Cl)c2)c(=O)n1CC1CCCO1 (stereo not drawn) | 120
13 | O=C1NC(=O)C(=Cc2ccc(-c3cccc([N+](=O)[O-])c3)o2)C(=O)N1 | 104.1 ± 0.26
14 | CC(=O)C1(c2ccccc2)CCN(C(=O)c2ncoc2-c2ccc(F)cc2)CC1 | 127
15 | Cc1nnc(N2CCNCC2)c2nn(-c3ccccc3)c(C)c12 | 122
16 | O=C(c1ccccc1)c1cc(Cl)ccc1NC(=O)c1coc2ccccc2c1=O | 107 ± 9.4
17 | CCCCn1c(=S)[nH]c(O)c(C2=NN(C(=O)CC)C(c3ccc(N(CC)CC)cc3)C2)c1=O (stereo not drawn) | 107
18 | Cc1ccc(N2C(=O)NC(=O)/C(=C/c3cn(C)c4ccccc34)C2=O)cc1 | 122 ± 4.1
19 | Cc1ccc(-c2ccc(C=C3C(=O)NC(=O)NC3=O)o2)cc1 | 119

Row | Structure (SMILES) | host macrophage viability [%]
20 | O=C1NC(=O)C(=CNc2ccccc2C(=O)c2ccccc2)C(=O)N1 | 118
21 | CC(=O)N1N=C(c2c(O)n(C)c(=S)n(C)c2=O)CC1c1ccc(C(C)C)cc1 (stereo not drawn) | 124
22 | COc1ccc(OC)c(N2C(=O)NC(=O)/C(=C\c3ccco3)C2=O)c1 | 111
23 | COc1ccc(C=C2C(=O)NC(=O)NC2=O)cc1OC | 119 ± 12
24 | CC(=O)c1cccc(NC(=O)N2CCC3(CC2)OCCO3)c1 | 116
25 | O=C(c1ncoc1-c1ccc(F)cc1)N1CC2CC(C1)c1cccc(=O)n1C2 (stereo not drawn) | 86.6
26 | O=C1NC(=S)NC(=O)C1=CNc1ccc(Cl)cc1C(=O)c1ccccc1 | 123
27 | O=C(Nc1ccncc1)c1cccn(Cc2ccccc2F)c1=O | 136
28 | Cc1nc2nc(-c3ccc(C(C)(C)C)cc3)nn2c(C)c1CC(=O)N1CCN(CCO)CC1 | 110
29 | CC1Oc2ccc(S(=O)(=O)N3CC4CC(C3)c3cccc(=O)n3C4)cc2NC1=O (stereo not drawn) | 102
30 | COC(=O)c1ccc(C(=O)OC)c(NC(=O)c2cccn(Cc3ccc(C)cc3)c2=O)c1 | 146
31 | CCC(=O)N1N=C(c2c(O)[nH]c(=S)n(C)c2=O)CC1c1cc(OC)ccc1OC (stereo not drawn) | 96
32 | CCC(=O)N1N=C(c2c(O)n(C)c(=S)n(C)c2=O)CC1c1ccc(N(CC)CC)cc1 (stereo not drawn) | 106
33 | CN(CCC#N)c1ccc(C=C2C(=O)NC(=S)NC2=O)cc1 | 140
34 | O=C1NC(=S)NC(=O)C1=Cc1ccc(-c2cc(Cl)ccc2Cl)o1 | 107
35 | O=C(c1cccnc1)N1Cc2ccccc2-n2cccc2C1c1cc(F)cc(F)c1 (stereo not drawn) | 120
36 | COC(=O)C1=C(N)Oc2cc(C)n(Cc3ccccc3)c(=O)c2C12C(=O)N(C)c1ccccc12 (stereo not drawn) | 121
37 | O=C(C(=O)N1CCC2(CC1)OCCO2)c1c[nH]c2ccccc12 | 104 ± 21
38 | CCCCn1c(=S)[nH]c(O)c(C2=NN(C(C)=O)C(c3ccc4c(c3)OCO4)C2)c1=O (stereo not drawn) | 132

Two records picked at random from the list so far, as already listed:
Row | Structure (SMILES) | host macrophage viability [%]
13 | O=C1NC(=O)C(=Cc2ccc(-c3cccc([N+](=O)[O-])c3)o2)C(=O)N1 | 104.1 ± 0.26
20 | O=C1NC(=O)C(=CNc2ccccc2C(=O)c2ccccc2)C(=O)N1 | 118
